For one molecule, binding results are on record in publication PMC6517818, “The yeast mitochondrial pyruvate carrier is a hetero‐dimer in its functional state” (The EMBO Journal, 2019).

No constants are given. Whether binding was seen depends on the method and setting. Binding seen in cells or lysates may run through a third protein. Some binding calls cover weakened binding; strength is not graded here. Tags and fused reporters may be left off the sequences shown.

The assay has as its target T1, Mpc2 with a C-terminal Factor Xa cleavage site and octa-histidine tag (S. cerevisiae) (UniProt P38857).
T1 sequence: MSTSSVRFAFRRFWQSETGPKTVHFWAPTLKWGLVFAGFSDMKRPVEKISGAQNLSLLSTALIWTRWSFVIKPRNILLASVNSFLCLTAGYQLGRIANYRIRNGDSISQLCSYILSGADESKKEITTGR
Description: pull-down; nickel-affinity co-purification: untagged Mpc1 co-expressed with His8-tagged partner in yeast mitochondria; solubilised in 1% LMNG, 20 mM Tris-HCl pH 7.4, 150 mM NaCl, 4 °C; bound to nickel Sepharose, washed with 40 mM imidazole, 0.1% LMNG, 0.1 mg/ml TOCL; released by on-column Factor Xa cleavage; SDS-PAGE with Coomassie stain and peptide mass fingerprinting; Mpc1/Mpc3 also purified in Triton X-100, DMNG or DDM.

B1: Mpc1 (untagged), mitochondrial pyruvate carrier protein 1 from Saccharomyces cerevisiae (natural protein, S. cerevisiae, UniProt P53157 1-130, looked up)
chain: MSQPVQRAAARSFLQKYINKETLKYIFTTHFWGPVSNFGIPIAAIYDLKKDPTLISGPMTFALVTYSGVFMKYALSVSPKNYLLFGCHLINETAQLAQGYRFLKYTYFTTDEEKKALDKEWKEKEKTGKQ
notes: Mpc1, S. cerevisiae, UniProt P53157; codon-optimised synthetic gene; theoretical mass 15 kDa; also called unmodified Mpc1; source: S. cerevisiae mitochondria (SHY15 or W303-1B), co-expressed from pBEVY-GU with histidine-tagged Mpc3 or Mpc2; co-purified on nickel Sepharose in LMNG and tetraoleoyl cardiolipin
With B1, the binding result is reported as “binds”.
